Measurements reported in paper PMC11101681.
These are yes or no findings as the source states them, for the method shown. Binding seen in cells or lysates may run through a third protein. Here binding means that the protein was enriched with, or labelled near, the bait; the list need not be complete. For some assays here: Sequences can lack the tags named with a protein.

Chains of the proteins cited; added tags and fusions are not shown.
UniProt P35244: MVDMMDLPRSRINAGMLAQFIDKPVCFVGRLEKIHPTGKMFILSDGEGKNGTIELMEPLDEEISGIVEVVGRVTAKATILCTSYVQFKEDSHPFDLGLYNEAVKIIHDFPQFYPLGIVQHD
UniProt Q9Y294: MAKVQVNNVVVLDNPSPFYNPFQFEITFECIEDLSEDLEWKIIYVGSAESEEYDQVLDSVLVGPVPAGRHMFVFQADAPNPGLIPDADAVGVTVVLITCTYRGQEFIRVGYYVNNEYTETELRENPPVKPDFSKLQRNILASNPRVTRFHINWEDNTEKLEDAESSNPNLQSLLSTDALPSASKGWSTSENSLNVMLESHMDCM
UniProt Q9NVP2: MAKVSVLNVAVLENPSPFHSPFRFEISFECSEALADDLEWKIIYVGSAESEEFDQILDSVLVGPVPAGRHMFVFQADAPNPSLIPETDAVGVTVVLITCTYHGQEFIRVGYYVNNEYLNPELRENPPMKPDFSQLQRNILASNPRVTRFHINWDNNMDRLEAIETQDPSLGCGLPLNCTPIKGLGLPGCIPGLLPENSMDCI
UniProt Q9BRT9: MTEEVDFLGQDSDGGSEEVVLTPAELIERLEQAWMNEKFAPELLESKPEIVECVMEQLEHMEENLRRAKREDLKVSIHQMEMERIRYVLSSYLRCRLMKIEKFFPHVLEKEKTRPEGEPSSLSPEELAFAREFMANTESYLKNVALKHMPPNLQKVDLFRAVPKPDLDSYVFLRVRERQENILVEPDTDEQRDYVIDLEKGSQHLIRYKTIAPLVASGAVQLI

T1: GINS1 (FLAG-BioID2 fusion bait) (human (cDNA library of U2OS cells)) (UniProt Q14691)
T1 sequence: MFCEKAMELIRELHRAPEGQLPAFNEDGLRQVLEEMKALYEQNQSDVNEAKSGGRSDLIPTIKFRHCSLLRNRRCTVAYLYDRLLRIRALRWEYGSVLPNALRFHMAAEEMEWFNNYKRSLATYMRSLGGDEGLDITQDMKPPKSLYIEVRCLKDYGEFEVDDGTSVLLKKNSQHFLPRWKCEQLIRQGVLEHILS

T2: POLE4 (Flag-BIOID2-POLE4) (human (cDNA library of U2OS cells)) (UniProt Q9NR33)
T2 sequence: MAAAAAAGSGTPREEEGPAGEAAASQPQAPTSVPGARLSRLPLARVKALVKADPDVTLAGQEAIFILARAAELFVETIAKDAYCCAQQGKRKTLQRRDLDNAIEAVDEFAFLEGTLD

T3: GINS2 (Flag-BIOID2-GINS2) (human (cDNA library of U2OS cells)) (UniProt Q9Y248)
T3 sequence: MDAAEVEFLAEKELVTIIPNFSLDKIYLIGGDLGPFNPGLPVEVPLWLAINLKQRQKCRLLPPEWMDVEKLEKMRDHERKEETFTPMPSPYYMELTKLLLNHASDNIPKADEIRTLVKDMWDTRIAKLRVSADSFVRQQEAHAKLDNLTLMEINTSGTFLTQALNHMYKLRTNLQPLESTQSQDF


Experiments:
Assay in all cases: proximity labelling; BioID2 fused N-terminally to the bait in stable HEK293 Flp-In T-REx cells; doxycycline 48 h, 50 uM biotin for the last 24 h, with or without 1 mM hydroxyurea for the last 24 h; lysis in 8 M urea, streptavidin sepharose, trypsin, LC-MS/MS; hits by SAINT score >=0.95 against the 293FT control and AvgSpec >=5
[1] = molecular target: T1, GINS1 (FLAG-BioID2 fusion bait) (human (cDNA library of U2OS cells))
[2] = molecular target: RPA3 (3MYC-BioID2 fusion bait) (UniProt P35244)
[3] = molecular target: ASF1A (3MYC-BioID2 fusion bait) (human (cDNA library of U2OS cells)) (UniProt Q9Y294)
[4] = molecular target: ASF1B (3xMyc-BioID2-ASF1B) (human (cDNA library of U2OS cells)) (UniProt Q9NVP2)
[5] = molecular target: T2, POLE4 (Flag-BIOID2-POLE4) (human (cDNA library of U2OS cells))
[6] = molecular target: T3, GINS2 (Flag-BIOID2-GINS2) (human (cDNA library of U2OS cells))
[7] = molecular target: GINS4 (FLAG-BioID2 fusion bait) (human (cDNA library of U2OS cells)) (UniProt Q9BRT9)

binding [1] | binding [2] | binding [3] | binding [4] | binding [5] | binding [6] | binding [7] | Binder
binds | – | – | – | – | – | – | GINS2 (Flag-BIOID2-GINS2) (protein, UniProt Q9Y248 1-185) MDAAEVEFLAEKELVTIIPNFSLDKIYLIGGDLGPFNPGLPVEVPLWLAINLKQRQKCRLLPPEWMDVEKLEKMRDHERKEETFTPMPSPYYMELTKLLLNHASDNIPKADEIRTLVKDMWDTRIAKLRVSADSFVRQQEAHAKLDNLTLMEINTSGTFLTQALNHMYKLRTNLQPLESTQSQDF
– | binds | binds | binds | binds | – | – | ZPR1 (protein, UniProt O75312 1-459) MAASGAVEPGPPGAAVAPSPAPAPPPAPDHLFRPISAEDEEQQPTEIESLCMNCYCNGMTRLLLTKIPFFREIIVSSFSCEHCGWNNTEIQSAGRIQDQGVRYTLSVRALEDMNREVVKTDSAATRIPELDFEIPAFSQKGALTTVEGLITRAISGLEQDQPARRANKDATAERIDEFIVKLKELKQVASPFTLIIDDPSGNSFVENPHAPQKDDALVITHYNRTRQQEEMLGLQEEAPAEKPEEEDLRNEVLQFSTNCPECNAPAQTNMKLVQIPHFKEVIIMATNCENCGHRTNEVKSGGAVEPLGTRITLHITDASDMTRDLLKSETCSVEIPELEFELGMAVLGGKFTTLEGLLKDIRELVTKNPFTLGDSSNPGQTERLQEFSQKMDQIIEGNMKAHFIMDDPAGNSYLQNVYAPEDDPEMKVERYKRTFDQNEELGLNDMKTEGYEAGLAPQR
binds | – | – | – | – | binds | binds | GINS3 (protein, UniProt Q9BRX5 1-216) MSEAYFRVESGALGPEENFLSLDDILMSHEKLPVRTETAMPRLGAFFLERSAGAETDNAVPQGSKLELPLWLAKGLFDNKRRILSVELPKIYQEGWRTVFSADPNVVDLHKMGPHFYGFGSQLLHFDSPENADISQSLLQTFIGRFRRIMDSSQNAYNEDTSALVARLDEMERGLFQTGQKGLNDFQCWEKGQASQITASNLVQNYKKRKFTDMED
